The record followed here is article PMC3689669.

Chains of the proteins cited; added tags and fusions are not shown. Residues count along the entry.
UniProt P02751, residues 1266-1908: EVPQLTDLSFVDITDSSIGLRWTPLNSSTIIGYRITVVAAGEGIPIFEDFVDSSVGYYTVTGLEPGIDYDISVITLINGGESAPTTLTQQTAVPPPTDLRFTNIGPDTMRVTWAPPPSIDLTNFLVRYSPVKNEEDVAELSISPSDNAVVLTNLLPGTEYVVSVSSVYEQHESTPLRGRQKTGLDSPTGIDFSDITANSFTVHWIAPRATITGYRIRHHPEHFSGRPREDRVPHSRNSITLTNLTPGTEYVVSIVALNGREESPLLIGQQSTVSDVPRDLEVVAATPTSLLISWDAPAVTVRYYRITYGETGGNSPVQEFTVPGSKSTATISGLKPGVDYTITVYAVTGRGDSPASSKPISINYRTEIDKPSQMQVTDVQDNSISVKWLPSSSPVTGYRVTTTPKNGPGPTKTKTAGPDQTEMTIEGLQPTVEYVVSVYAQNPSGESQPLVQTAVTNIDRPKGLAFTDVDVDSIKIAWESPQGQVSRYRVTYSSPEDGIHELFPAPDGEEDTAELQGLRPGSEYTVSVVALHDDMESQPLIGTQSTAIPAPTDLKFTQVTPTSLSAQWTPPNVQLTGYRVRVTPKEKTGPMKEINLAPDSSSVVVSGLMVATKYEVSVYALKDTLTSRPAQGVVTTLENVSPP
UniProt A0A0H2XKG3, residues 163-480: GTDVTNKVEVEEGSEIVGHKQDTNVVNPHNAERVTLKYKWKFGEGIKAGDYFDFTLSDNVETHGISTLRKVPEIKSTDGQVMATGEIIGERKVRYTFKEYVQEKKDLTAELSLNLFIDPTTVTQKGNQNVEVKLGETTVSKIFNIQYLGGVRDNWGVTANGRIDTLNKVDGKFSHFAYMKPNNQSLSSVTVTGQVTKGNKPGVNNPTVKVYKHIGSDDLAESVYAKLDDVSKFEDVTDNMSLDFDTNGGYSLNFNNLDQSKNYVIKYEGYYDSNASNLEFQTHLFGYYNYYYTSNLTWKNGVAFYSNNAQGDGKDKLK

Results are given in words; binding and its absence hold for the method and conditions named.

This experiment has as its target Recombinant fibronectin fragment, residues 1266–1908 (extra domain B plus type III modules 8–13 and the initial region of module 14) (UniProt P02751). Briefly: ELISA; Fn (1 µg/well) and Fn fragments (250 ng/well) coated; SpsD167–519 in solution, detected with anti-SpsD37–519 antibody; FnBPB163–480 as control, detected with anti-FnBPB163–480 IgG; both purified. In general terms: An ELISA detects its analyte on a solid surface through an enzyme-linked reagent.

“FnBPB_(163–480) (from UniProt A0A0H2XKG3 163-480) (domain or fragment)”: the binding entry is listed as “no binding”.
